Assay [1] deals with Neu5Gc(a2-8)Neu5Gc(a2-6)Gal(b1-4)GlcNAc. As to the kind of experiment: glycan array binding signal (z-score within array); higher = stronger binding. As to conditions: glycan notation: IUPAC condensed, linker removed. Put shortly: (§1)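 Columns mapping to the same glycan were averaged after glycan names were converted to IUPAC-condensed notation. The data come from 3228 arrays in the Consortium for Functional Glycomics database, limited to those with an available protein sequence. Binding is reported as a within-array Z-score averaged across arrays of one protein sequence and across linkers.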

Assay [2] addresses Neu5Gc(b2-6)Gal(b1-4)GlcNAc. The description is as above. The settings on record: glycan notation: IUPAC condensed, linker removed. Put shortly:
as §1

The other results are listed elsewhere or left out.

B1: FimA (Actinomyces oris) (protein)
chain: MHHHHHHSSGVDLGTENLYFQSNAETPNYGNIKTDATGSLVIHKHLTGGGKDIGTPTGTAQNADDKGPAVEGVVFTAYPITDINLKDPAGWDTISNLSRTGVPDSACANPAAPTLGAHQFGTPKVSPATTKEGLATITEMPVQAYLVCETTTPGDIVQKAKPFVVTIPHPNTAAGADGQWIYDVNVYPKNEAIDVDKTIQAQKLNGYGVGSLIKFPVESTAPTLDAKSFYKYFQLKDTLDERLSEVTATDVSLEGTPLQPTDYKVETKQQTVTVTFTAEGLKKIKAAPGKKVSAVFQGKVTKAGNGAITNRAQVISDTLYAEQPPTPETPPTDPENPPTSDEVISRWGDLSIKKVDTHQQGQTKAGLQGAQFQLYKAKNAYANTCSNEKEGAPIAINGQTTLTTDAQGAIDIKGLFISDSIDGADRDNQVNAMERCYVLVETKAPAGYVLPAGNGAATPVKVKAGEETTDNVTVENTKQSVPGLPLTG
Consider B1, for which the “glycan array binding signal (z-score)” value in assay [1] turned out to be 0.225; in assay [2], 0.099.
